From the supplement of paper PMC10849652
The other results are listed elsewhere or left out.

The chains behind the UniProt entries cited, without tags or fusion partners. Where a name states a change or a piece, a line headed by the entry shows the natural chain unless it says otherwise.
UniProt P51610: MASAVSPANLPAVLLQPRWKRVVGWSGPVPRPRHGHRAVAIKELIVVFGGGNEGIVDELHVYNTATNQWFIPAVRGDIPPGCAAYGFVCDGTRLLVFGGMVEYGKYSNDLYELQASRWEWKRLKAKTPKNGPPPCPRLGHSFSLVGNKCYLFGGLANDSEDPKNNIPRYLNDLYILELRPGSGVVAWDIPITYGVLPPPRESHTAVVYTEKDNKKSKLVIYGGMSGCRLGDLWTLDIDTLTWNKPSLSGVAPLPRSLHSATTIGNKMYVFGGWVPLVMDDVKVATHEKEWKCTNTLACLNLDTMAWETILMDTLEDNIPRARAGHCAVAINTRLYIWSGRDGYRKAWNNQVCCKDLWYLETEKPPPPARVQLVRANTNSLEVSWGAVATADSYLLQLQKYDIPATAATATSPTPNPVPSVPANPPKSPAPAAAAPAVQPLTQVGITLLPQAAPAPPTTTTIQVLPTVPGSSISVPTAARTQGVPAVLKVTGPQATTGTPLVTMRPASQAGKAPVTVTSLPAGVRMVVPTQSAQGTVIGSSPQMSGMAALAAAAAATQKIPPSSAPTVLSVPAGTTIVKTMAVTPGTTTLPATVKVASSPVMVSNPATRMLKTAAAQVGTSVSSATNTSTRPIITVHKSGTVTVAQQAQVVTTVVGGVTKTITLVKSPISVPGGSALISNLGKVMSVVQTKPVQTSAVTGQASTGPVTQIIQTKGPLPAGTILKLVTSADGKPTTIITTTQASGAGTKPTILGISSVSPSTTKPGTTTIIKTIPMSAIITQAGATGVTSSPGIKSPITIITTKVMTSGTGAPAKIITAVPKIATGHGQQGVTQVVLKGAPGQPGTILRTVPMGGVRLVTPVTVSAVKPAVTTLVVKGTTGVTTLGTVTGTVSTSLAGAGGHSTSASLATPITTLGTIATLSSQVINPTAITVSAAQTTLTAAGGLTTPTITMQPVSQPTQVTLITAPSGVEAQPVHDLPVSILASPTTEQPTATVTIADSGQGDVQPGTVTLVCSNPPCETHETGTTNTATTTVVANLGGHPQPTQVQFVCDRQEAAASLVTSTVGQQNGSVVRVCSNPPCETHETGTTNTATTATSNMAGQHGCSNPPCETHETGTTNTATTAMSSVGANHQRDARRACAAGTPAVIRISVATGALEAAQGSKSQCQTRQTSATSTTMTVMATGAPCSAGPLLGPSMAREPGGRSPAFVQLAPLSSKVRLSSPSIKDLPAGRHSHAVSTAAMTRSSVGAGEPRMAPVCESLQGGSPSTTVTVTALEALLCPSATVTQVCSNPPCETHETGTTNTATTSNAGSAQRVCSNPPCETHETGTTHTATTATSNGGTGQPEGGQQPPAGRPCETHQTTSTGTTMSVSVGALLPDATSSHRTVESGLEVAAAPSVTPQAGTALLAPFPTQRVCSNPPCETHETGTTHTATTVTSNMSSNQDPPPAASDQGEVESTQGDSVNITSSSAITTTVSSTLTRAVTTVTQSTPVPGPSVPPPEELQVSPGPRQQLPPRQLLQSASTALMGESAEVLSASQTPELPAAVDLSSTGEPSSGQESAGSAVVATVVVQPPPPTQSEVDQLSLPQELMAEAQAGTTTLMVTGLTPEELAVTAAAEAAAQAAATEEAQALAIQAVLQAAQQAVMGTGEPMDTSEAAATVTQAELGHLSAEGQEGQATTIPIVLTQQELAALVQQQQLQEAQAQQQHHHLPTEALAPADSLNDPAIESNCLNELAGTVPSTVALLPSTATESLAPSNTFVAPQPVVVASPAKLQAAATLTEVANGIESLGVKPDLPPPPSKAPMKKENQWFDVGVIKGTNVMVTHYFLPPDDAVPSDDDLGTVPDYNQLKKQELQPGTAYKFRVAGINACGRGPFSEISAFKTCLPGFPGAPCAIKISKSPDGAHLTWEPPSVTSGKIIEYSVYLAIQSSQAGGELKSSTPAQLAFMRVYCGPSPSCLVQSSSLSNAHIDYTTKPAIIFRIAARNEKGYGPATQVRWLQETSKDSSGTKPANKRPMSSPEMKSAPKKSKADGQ
UniProt Q99871: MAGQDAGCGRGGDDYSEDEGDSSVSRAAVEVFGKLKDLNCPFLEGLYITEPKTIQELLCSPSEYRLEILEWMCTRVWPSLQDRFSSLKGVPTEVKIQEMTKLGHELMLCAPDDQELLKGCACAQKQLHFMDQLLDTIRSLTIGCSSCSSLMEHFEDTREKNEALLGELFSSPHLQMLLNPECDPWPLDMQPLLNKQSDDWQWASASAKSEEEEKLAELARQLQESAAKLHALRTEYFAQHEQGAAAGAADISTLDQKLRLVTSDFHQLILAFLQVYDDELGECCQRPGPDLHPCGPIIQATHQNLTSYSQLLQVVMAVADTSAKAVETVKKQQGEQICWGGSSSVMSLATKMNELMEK
UniProt Q5JVS0: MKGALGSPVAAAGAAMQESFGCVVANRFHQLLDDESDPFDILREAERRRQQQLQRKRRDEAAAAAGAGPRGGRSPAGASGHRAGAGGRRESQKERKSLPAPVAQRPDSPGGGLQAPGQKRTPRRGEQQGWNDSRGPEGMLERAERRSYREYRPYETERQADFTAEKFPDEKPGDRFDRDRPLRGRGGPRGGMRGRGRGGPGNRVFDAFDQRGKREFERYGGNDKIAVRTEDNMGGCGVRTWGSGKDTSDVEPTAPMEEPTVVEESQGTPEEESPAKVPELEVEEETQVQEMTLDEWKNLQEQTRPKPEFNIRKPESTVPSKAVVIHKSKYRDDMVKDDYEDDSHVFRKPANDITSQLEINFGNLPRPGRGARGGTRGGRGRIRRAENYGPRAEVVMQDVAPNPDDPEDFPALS
UniProt Q8N3Z3: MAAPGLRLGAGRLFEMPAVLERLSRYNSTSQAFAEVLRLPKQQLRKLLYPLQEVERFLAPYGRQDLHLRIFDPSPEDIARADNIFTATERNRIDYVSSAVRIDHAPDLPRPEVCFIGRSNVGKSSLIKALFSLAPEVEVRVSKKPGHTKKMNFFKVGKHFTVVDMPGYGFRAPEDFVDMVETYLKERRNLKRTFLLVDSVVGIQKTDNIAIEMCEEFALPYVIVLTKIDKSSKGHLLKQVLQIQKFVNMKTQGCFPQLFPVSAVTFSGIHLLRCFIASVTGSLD
UniProt Q8WVB3: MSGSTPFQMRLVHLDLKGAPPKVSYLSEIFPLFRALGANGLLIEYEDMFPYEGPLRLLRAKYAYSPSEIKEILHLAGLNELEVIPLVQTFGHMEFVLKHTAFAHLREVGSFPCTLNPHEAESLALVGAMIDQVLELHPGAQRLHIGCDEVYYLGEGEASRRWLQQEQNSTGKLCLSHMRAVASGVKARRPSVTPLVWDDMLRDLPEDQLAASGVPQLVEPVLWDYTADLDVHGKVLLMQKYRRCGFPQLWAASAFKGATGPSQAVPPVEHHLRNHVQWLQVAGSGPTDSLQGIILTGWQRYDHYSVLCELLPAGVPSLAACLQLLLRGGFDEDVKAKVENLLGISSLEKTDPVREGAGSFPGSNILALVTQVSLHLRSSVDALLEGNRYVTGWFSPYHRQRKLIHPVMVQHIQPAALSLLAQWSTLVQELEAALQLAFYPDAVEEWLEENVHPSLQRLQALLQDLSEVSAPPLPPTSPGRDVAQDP
UniProt Q9Y5Q9: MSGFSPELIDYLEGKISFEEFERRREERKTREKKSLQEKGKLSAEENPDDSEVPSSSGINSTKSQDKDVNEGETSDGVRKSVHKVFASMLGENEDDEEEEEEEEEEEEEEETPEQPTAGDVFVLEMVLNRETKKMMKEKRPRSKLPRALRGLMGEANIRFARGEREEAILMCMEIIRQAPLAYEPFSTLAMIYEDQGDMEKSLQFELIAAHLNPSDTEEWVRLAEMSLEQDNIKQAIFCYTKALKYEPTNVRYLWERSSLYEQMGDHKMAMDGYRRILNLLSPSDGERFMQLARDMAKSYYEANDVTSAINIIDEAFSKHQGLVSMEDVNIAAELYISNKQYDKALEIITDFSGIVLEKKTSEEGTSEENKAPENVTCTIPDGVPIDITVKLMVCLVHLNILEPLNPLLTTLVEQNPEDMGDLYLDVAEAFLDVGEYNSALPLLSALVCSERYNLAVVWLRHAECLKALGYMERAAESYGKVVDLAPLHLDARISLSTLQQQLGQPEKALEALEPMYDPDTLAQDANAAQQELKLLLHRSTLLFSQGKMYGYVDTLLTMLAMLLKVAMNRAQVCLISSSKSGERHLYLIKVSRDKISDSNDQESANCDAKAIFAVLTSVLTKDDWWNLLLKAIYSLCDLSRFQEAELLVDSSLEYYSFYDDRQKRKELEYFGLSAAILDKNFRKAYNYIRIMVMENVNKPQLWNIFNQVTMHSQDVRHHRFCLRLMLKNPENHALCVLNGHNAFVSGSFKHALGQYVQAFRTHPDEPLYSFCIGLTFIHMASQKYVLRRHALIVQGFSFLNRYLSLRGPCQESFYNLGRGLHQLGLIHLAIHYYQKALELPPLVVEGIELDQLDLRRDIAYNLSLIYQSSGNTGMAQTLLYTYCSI
UniProt Q8N442: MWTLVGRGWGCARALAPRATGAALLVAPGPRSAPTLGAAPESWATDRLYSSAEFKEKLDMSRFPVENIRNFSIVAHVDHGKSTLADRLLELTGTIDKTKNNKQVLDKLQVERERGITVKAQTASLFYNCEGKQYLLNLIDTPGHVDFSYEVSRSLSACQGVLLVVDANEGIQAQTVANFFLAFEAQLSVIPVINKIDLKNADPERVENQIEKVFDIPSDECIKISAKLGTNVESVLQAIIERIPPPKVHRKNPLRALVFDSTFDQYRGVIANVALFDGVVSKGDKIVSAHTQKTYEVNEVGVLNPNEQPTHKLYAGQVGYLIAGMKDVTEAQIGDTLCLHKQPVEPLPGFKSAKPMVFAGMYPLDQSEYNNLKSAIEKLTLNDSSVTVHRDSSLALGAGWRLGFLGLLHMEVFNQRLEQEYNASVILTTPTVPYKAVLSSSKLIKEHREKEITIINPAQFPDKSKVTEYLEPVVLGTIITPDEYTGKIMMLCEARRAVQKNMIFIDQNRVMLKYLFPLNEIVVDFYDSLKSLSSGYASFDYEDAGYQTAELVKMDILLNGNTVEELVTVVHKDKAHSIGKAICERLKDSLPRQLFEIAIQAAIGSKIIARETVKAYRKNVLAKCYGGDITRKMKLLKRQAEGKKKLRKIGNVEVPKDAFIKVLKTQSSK
UniProt Q9NVX0: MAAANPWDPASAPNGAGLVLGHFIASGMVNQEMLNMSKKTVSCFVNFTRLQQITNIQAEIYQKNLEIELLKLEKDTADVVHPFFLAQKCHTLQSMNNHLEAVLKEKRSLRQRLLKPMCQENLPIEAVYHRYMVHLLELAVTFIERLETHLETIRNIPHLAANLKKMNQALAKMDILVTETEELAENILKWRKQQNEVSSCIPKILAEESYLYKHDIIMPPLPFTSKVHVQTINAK
UniProt Q7Z4Q2: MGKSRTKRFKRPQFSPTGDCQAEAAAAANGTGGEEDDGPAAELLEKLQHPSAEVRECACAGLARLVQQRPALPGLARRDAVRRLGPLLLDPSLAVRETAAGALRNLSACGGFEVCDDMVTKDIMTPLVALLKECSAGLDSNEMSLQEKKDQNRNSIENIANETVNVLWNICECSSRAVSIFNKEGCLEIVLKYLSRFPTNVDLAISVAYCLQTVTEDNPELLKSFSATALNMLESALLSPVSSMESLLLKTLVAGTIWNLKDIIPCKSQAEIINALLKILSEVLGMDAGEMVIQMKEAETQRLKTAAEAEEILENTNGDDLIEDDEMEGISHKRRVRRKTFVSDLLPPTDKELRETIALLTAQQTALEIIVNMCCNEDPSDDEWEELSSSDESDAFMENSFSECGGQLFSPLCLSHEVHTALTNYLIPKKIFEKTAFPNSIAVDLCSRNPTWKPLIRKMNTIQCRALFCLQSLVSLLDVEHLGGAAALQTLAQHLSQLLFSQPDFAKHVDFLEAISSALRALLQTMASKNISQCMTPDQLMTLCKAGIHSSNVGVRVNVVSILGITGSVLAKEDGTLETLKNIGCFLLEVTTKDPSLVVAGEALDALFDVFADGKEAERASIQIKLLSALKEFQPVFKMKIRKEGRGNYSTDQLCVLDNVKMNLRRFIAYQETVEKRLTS
UniProt Q93099: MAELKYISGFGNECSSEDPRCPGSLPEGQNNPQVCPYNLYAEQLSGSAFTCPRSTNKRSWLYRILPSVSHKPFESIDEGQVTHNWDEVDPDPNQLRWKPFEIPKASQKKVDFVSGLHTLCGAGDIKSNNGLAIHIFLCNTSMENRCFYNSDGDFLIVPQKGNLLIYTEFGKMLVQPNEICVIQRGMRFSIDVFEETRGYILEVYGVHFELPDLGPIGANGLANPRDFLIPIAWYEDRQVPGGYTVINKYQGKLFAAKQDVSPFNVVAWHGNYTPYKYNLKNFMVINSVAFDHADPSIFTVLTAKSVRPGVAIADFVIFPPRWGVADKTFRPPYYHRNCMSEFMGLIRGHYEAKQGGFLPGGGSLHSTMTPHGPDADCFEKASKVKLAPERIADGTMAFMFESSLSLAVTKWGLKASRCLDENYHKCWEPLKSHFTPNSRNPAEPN

Assays:
Experiment in all cases: log2 fold change, soluble protein after heating vs DMSO (PISA); higher = thermal stabilisation; K562 cells, 10 uM, 30 min; active = over 0.2 and 3.5 SD of the protein, either way, in both replicates (recomputed)
erlotinib = compound: C#Cc1cccc(Nc2ncnc3cc(OCCOC)c(OCCOC)cc23)c1 [erlotinib]
Procedure, shortened: (§1)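 K562 cells at 2×10^6 cells/mL were treated for 30 min with 10 μM compound, and aliquots were heated for 3 min over 48°C-58°C before pooling. Extraction used PBS with 0.5% NP-40 at 4°C, and soluble protein was the supernatant after 21,000xg for 90 min, measured by TMTpro 16plex LC-MS/MS with channel sums equalised. Thermal stability values, relative to control samples and from duplicates, are log2 fold changes.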

[1] = compound: C/C(=N\NC(=O)C1=CC(=CC=C1)S(=O)(=O)N2CCOCC2)/C3=C(C=CC(=C3)Cl)O
Procedure, shortened: as §1

[2] = compound: C1=CC(=CC=C1C2=NC3=C(N2)C=C(C=C3)C(=O)N)OC4=CC=C(C=C4)Cl
Procedure, shortened: as §1

[3] = compound: C1=CC2=C(C=CC(=C2)/C=C\3/C(=O)NC(=NCC4=CC=CS4)S3)N=C1
Procedure, shortened: as §1

[4] = compound: C1=CC=C2C(=C1)C3=NNC4=CC=CC(=C43)C2=O
Procedure, shortened: as §1

[5] = compound: C1CCN(C1)C(=O)NC2=CC=CC(=C2)NC3=NC=C(C(=N3)NCCC4=CN=CN4)Br
Procedure, shortened: as §1

[6] = compound: C1CN(CCC1(CC2=CC=C(C=C2)Cl)N)C3=NC=NC4=C3C=CN4
Procedure, shortened: as §1

[7] = compound: C1=CC(=C(C=C1Cl)C2=NC3=NC=CN=C3C(=N2)NC4=CC=NC=C4)F
Procedure, shortened: as §1

[8] = compound: C1=CC2=NC=CN=C2C=C1/C=C/3\C(=O)NC(=O)S3
Procedure, shortened: as §1

[9] = compound: C1=CC=C(C=C1)C2=NC(=C(N2)C3=CC=NC=C3)C4=CC(=C(C=C4)Cl)O
Procedure, shortened: as §1

Measured: log2 fold change

HES1 (UniProt Q14469)
inactive: erlotinib 0.244 | [1] 0.316 | [2] -0.059 | [3] 0.043 | [4] -0.096 | [5] -0.214 | [6] -0.174

HACE1 (UniProt Q8IYU2)
inactive: erlotinib 0.03 | [2] 0.055 | [5] -0.123 | [6] -0.027

GTPBP4 (UniProt Q9BZE4)
inactive: [1] -0.391 | [7] -0.778 | [3] -0.029 | [8] -0.067 | [9] -0.119 | [4] -0.081 | [5] -0.01 | [6] -0.263

HCFC1 (UniProt P51610)
inactive: erlotinib -0.186 | [2] -0.417 | [9] 0.054 | [5] -0.038 | [6] -0.226

GTF2H1 (UniProt P32780)
inactive: erlotinib 0.019 | [2] -0.037 | [9] 0.037

HACD2 (UniProt Q6Y1H2)
inactive: erlotinib -0.138 | [2] 0.063 | [5] -0.046 | [6] 0.179

HDAC8 (UniProt Q9BY41)
inactive: [7] -0.48

HAUS7 isoform 2 (UniProt Q99871)
inactive: [1] 0.089 | [3] 0.011 | [9] -0.069 | [4] -0.024

HABP4 (UniProt Q5JVS0)
inactive: erlotinib -0.031 | [7] -0.307 | [2] 0.002 | [8] 0.224 | [9] 0.026

GYG2 (UniProt O15488)
inactive: erlotinib 0.077 | [2] 0.166

HBB (UniProt P68871)
inactive: [1] 0.061 | [3] 0.073 | [4] -0.005

HBD (UniProt E9PEW8)
inactive: erlotinib 0.054 | [2] -0.037

GTF3C6 (UniProt Q969F1)
inactive: [7] -0.051 | [8] 0.122 | [5] 0.026 | [6] -0.042

HAUS8 (UniProt Q9BT25)
inactive: [1] -0.032 | [3] 0.126 | [9] -0.008 | [4] -0.035

H3-3A (UniProt P84243)
inactive: erlotinib 0.085 | [2] -0.035 | [8] -0.1 | [5] 0.049 | [6] -0.218

GZF1 (UniProt Q9H116)
inactive: [1] -0.212 | [3] -0.296 | [4] -0.453

GTPBP8 (UniProt Q8N3Z3)
inactive: erlotinib 0.226 | [2] -0.071 | [5] 0 | [6] 0.13

GTF2H4 (UniProt Q92759)
inactive: [1] 0.003 | [7] -0.113 | [3] 0.17 | [4] 0.085 | [5] 0.19 | [6] 0.098

Looked up one by one from the list above, 2 records:
GZF1 (UniProt Q9H116)
inactive: [1] -0.212 | [3] -0.296 | [4] -0.453

H3-3A (UniProt P84243)
inactive: erlotinib 0.085 | [2] -0.035 | [8] -0.1 | [5] 0.049 | [6] -0.218

Additional records.

H3C1 (UniProt P68431)
inactive: [9] -0.354

HEXD isoform 2 (UniProt Q8WVB3)
inactive: erlotinib 0.021 | [7] -0.003 | [2] 0.091

H3-2 (UniProt Q5TEC6)
inactive: erlotinib 0.266 | [2] -0.045 | [8] -0.271 | [9] -0.027

HERPUD1 (UniProt Q15011)
inactive: erlotinib -0.058 | [2] -0.036 | [5] 0.017 | [6] -0.001

HERC2 (UniProt O95714)
inactive: [1] -0.087 | [7] -0.423 | [3] 0.063 | [8] -0.313 | [9] -0.209 | [4] 0 | [5] 0.143 | [6] -0.045

HBZ, A0A494C057
inactive: erlotinib 0.141 | [2] -0.062 | [8] -0.055

HAL (UniProt P42357)
inactive: [1] -0.151 | [7] 0.092 | [3] 0.404 | [4] -0.351 | [5] -0.106 | [6] -0.173

GSTA1 (UniProt P08263)
inactive: [7] 0.008 | [8] -0.08 | [5] 0.189 | [6] 0.06

H2AFY (UniProt O75367)
inactive: erlotinib -0.027 | [7] -0.366 | [2] -0.028 | [8] 0.102 | [9] 0.015 | [5] 0.269 | [6] -0.113

GTF3C3 (UniProt Q9Y5Q9)
inactive: erlotinib 0.005 | [2] 0.024 | [8] 0.067 | [5] -0.1 | [6] 0.037

GUF1 (UniProt Q8N442)
inactive: erlotinib 0.075 | [1] -0.039 | [2] -0.161 | [3] -0.045 | [9] 0.01 | [4] 0.14 | [5] -0.022 | [6] -0.002

HEXIM2 (UniProt Q96MH2)
inactive: [7] 0.175

HAUS2 (UniProt Q9NVX0)
inactive: erlotinib -0.037 | [1] 0.075 | [2] 0.138 | [3] -0.331 | [4] -0.046

HELLS (UniProt Q9NRZ9)
inactive: [7] -0.229 | [8] 0.021

HAUS5 (UniProt O94927)
inactive: [1] -0.099 | [3] 0.037 | [9] -0.068 | [4] 0.027 | [5] -0.403 | [6] -0.203

HEATR3 (UniProt Q7Z4Q2)
inactive: erlotinib -0.002 | [7] -0.013 | [2] 0.013 | [8] -0.044 | [9] 0.062 | [5] -0.113 | [6] 0.032

HGD (UniProt Q93099)
inactive: [7] -0.03

HGF (UniProt P14210)
inactive: [7] -0.041 | [8] 0.083 | [5] 0.148 | [6] 0.265

HAGHL (UniProt Q6PII5)
inactive: erlotinib 0.051 | [7] -0.067 | [2] 0.069 | [8] 0.287 | [9] 0.121 | [5] -0.07 | [6] 0.026
